Results from article PMC7343504.
These are yes or no findings as the source states them, for the method shown. In cells and extracts the contact can be indirect. Some entries that bind do so weakly or less than the wild type.

Sequences of proteins named here, by UniProt entry; tags and fusion partners are left off.
UniProt Q12888: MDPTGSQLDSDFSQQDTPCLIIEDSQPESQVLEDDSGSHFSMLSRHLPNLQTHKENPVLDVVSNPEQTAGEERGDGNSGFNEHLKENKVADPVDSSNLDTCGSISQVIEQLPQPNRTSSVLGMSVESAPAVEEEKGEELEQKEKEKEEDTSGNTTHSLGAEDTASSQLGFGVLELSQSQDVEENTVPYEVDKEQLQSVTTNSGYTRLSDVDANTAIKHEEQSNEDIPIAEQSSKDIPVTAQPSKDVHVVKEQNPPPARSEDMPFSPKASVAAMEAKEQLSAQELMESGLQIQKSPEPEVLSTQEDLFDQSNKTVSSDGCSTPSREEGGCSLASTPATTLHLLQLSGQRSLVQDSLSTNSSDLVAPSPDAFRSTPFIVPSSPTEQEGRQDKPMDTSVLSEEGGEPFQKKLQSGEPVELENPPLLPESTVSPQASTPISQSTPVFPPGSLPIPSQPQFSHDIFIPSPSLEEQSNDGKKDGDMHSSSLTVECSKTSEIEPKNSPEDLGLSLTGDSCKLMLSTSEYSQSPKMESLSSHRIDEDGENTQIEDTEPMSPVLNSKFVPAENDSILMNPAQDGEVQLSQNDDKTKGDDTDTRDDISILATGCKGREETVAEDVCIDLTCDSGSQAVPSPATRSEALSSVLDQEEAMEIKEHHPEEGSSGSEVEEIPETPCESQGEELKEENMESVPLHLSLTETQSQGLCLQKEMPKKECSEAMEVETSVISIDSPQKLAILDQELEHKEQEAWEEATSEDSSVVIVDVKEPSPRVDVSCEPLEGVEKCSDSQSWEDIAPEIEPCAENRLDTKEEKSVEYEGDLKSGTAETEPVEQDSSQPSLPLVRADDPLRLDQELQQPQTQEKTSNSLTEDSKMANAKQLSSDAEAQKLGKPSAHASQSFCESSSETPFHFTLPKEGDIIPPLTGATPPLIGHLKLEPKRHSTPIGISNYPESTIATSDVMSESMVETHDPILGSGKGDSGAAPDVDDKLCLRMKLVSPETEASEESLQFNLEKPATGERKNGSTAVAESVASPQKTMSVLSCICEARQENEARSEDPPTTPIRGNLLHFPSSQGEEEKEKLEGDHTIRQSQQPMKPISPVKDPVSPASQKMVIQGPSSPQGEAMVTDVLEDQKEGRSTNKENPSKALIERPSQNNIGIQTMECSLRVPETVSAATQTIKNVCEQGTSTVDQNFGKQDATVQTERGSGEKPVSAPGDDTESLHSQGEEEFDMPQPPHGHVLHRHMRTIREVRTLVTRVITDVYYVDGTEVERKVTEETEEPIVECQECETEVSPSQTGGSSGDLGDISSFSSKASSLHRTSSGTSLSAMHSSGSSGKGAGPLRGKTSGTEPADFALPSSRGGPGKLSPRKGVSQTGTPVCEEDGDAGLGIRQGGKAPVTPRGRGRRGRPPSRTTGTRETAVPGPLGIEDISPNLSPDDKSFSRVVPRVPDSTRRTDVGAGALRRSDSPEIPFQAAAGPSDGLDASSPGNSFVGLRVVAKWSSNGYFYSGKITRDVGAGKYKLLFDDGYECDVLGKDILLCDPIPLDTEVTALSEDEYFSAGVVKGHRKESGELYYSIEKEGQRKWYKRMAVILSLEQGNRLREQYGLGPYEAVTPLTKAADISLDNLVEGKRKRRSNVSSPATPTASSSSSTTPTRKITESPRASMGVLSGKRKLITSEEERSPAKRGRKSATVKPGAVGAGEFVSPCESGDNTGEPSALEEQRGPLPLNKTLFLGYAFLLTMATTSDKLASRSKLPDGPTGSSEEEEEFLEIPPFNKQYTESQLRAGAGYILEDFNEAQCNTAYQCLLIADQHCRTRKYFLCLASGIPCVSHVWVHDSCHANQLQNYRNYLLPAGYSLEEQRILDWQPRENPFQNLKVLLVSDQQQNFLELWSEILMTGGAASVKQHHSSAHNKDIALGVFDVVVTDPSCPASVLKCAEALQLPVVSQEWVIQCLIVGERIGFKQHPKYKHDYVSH
UniProt P45973: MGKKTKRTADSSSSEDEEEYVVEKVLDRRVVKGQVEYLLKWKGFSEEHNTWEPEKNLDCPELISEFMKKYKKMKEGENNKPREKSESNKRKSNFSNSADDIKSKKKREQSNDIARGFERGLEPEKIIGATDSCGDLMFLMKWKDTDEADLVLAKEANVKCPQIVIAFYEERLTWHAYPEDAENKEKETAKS

Biological target: 53BP1 (human (endogenous in human skin fibroblasts)) (UniProt Q12888)
Test: proximity ligation; Duolink PLA on fixed and permeabilised human skin fibroblasts with antibodies against HP1α and 53BP1; signal detected within 10 minutes after irradiation

For “Heterochromatin protein 1α (HP1α) (from UniProt P45973 1-191)”, the binding was “binds”.
